# In PubChem BioAssay AID493014 (National Center for Advancing Translational Sciences (NCATS), 2011):
# In all, about 340,000 compounds went through this assay and about 170 (0.05%) were called active. The inconclusive results got no clear call from the source; some entries with a clear call stand among them for comparison. The call rests on the fitted dose curve; in most records, active means well fitted inhibition curve with a large enough effect in the signal ratio, with a control signal flat (not every such curve was filed as active); inconclusive means small, poorly fitted or top-dose-only effect, or effect the other way, or a change in a side signal; inactive means flat fitted curve, though single readings scatter; the % refers to the signal ratio. Potencies of inconclusive entries are doubtful fits and often do not repeat.
# Assay: qHTS Assay to Find Inhibitors of Chronic Active B-Cell Receptor Signaling;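 on activity change, negative = inhibition: plate controls were basal doxycycline-induced cells for no effect and cells given 10 µM MG132 for full effect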
# Conditions: ABC-DLBCL IkBa-CBG/CBR reporter, luminescence ratio (green luciferase fused to IkBa over red control in TMD8 lymphoma cells), 4 h; activity change, negative = inhibition: at 46.1 µM (top of the series)
# Summary of the method: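 Cell line TMD8 (human ABC DLBCL), stably expressing tet-inducible CBG68-IkBa fusion and CBR; IMDM/0.5% FBS; cpd up to 46 uM; dox induction, 4 h, 37C/5% CO2; dual luminescence; green/red ratio; MG132 control.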
# Potency means the concentration at half of the fitted maximal effect.
SMILES,"activity change, negative = inhibition",Potency
COc1cc(OC)cc(C(=O)Nc2ccc(-n3cnnn3)c(C)c2)c1,inconclusive: -11.5%,
S=C(NN=C1C2CC3CC(C2)CC1C3)Nc1ccccc1,inconclusive: -28.3%,
O=c1c2ccccc2nnn1CSc1nnc(C2COc3ccccc3O2)n1-c1ccccc1 (centres undefined),inconclusive: -1.53%,
CCCN(CC(=O)Nc1ccccc1C)C(=O)c1ccc(-c2ccccc2)cc1,inconclusive: -9.82%,
Oc1ccc(-c2csc(Nc3ccccn3)n2)cc1O,,"inconclusive: 35.5 µM [falling, single point]"
COc1cc(NS(=O)(=O)c2ccc3c(c2)n(C)c(=O)n3C)cc(OC)c1,inconclusive: 13.2%,
CC1CC(C)(C)NC(=S)N1CC(=O)N1CCN(Cc2ccccc2)CC1 (centres undefined),inactive,
COc1ccc(/C=N/NC(=O)c2nc(Cl)c(Cl)c(N)c2Cl)cc1COc1ccc(F)cc1F,inactive,
C/C(=C/c1ccccc1)C(=O)N1CCN(c2ccc(F)cc2)CC1,inconclusive: 0.101%,
Cc1ccc(S(=O)(=O)NNC(=O)C2Cc3c(ccc4ccccc34)O2)cc1 (centres undefined),inconclusive: -25.9%,
Clc1ccc(CO/N=C/c2c(-c3ccccc3)nc3n2CCS3)c(Cl)c1,,"inconclusive: 4.47 µM [rising, full curve]"
CC(=O)Nc1cc2c(cc1C(C)=O)OCCO2,inconclusive: 2.7%,
CC1(C(=O)Nc2cccc3ccccc23)CC1(Br)Br (centres undefined),,"inconclusive: 5.01 µM [falling, partial curve, poor fit]"
Nc1cc(=O)[nH]c(SCC(=O)NCCC2=CCCCC2)n1,inactive,
CC(=O)Nc1nc(C)c(-c2csc(Nc3cccc(C(C)=O)c3)n2)s1,,"inconclusive: 2.82 µM [falling, full curve, poor fit]"
Oc1ccc(CNCC2COc3ccccc3O2)cc1 (centres undefined),inactive,
Cc1nc2c(=O)oc3ccccc3c2n1-c1ccccc1,inconclusive: -1.73%,
Cc1c(NC(=O)CSc2nnnn2-c2ccc(F)cc2)c(=O)n(-c2ccccc2)n1C,inconclusive: 1.59%,
COc1ccc(NS(=O)(=O)c2ccc3[nH]c4c(c3c2)CCCC4)cc1OC,inactive,
CNC(=O)c1cccc2nc3ccccc3nc12,inconclusive: 16.6%,
CCOC(=O)C1=C(C)OC(N)=C(C#N)C1c1cc2ccccc2nc1N1CCCCC1 (centres undefined),inconclusive: 11.6%,
CC(C)[C@H](CO)N(Cc1cccc(F)c1)c1nc(Nc2cccc(Cl)c2)c2ncn(C(C)C)c2n1,,"inconclusive: 6.31 µM [falling, single point]"
O=C(COC(=O)c1ccncc1)c1ccc(Br)cc1,inactive,
CC(C)(C)OC(=O)C[C@@H]1C/C=C\C[C@H](CC(=O)N(CCO)Cc2ccccc2)C(=O)N2CCC[C@@H]2COC1=O,inconclusive: 1.98%,
COc1ccc(/C=C/C(=O)NCCc2c[nH]c3ccccc23)cc1OC,inconclusive: -22%,

# Among those listed so far, 2 have bromine:
SMILES,"activity change, negative = inhibition",Potency
CC1(C(=O)Nc2cccc3ccccc23)CC1(Br)Br (centres undefined),,"inconclusive: 5.01 µM [falling, partial curve, poor fit]"
O=C(COC(=O)c1ccncc1)c1ccc(Br)cc1,inactive,

# Continued.

SMILES,"activity change, negative = inhibition",Potency
O=C(O)c1cccc(NC(=S)N/N=C/c2cccnc2)c1,,"inconclusive: 35.5 µM [falling, partial curve]"
CCOC(=O)Cc1csc(NC(=O)c2cccs2)n1,,"inconclusive: 31.6 µM [falling, partial curve]"
Cc1onc(-c2c(F)cccc2Cl)c1C(=O)OCn1nnc2ccccc2c1=O,inconclusive: -16.6%,
Cc1cc(N2CCN(Cc3cn(C)nc3-c3cccc(Cl)c3)CC2)cc(C)n1,,"inconclusive: 35.5 µM [falling, single point]"
CCCC(=O)Nc1cccc(NC(=O)c2ccc3c(c2)OCCO3)c1,,"inconclusive: 5.8 µM [falling, full curve]"
CC(=O)Nc1ccccc1NC(=O)C/C(C)=N/NC(=O)c1ccccn1,,"inconclusive: 11.2 µM [falling, partial curve]"
O=C(Nc1cccnc1)c1cc(-c2ccccc2O)on1,inconclusive: 181%,
Cc1c(C#N)c(N=CN(C)C)c(C(=O)c2ccc(Br)cc2)n1-c1ccc(Cl)cc1,,"inconclusive: 25.9 µM [rising, single point]"
CCC(=O)Nc1cc(-c2nn(C)c(=O)c3ccccc23)ccc1N1CCOCC1,inconclusive: 8.76%,
CC1Oc2ccccc2C=C1/C=N/NC(=O)c1ccccc1 (centres undefined),,"inconclusive: 25.9 µM [falling, partial curve]"
Cc1cccc([C@@H]2[C@@H]3C(=O)N(Cc4ccccc4)C(=O)[C@@H]3[C@]3(Cc4ccccc4)C(=O)N(c4cccc(Cl)c4)C(=O)N23)c1,inconclusive: -0.702%,
O=C(NN=Cc1ccc(OC(F)F)cc1)c1ccc(NS(=O)(=O)c2cccs2)cc1,,"inconclusive: 16.4 µM [falling, single point]"
CCOC(=O)C1=C(C)N=c2s/c(=C/c3cccc(OCC(=O)O)c3)c(=O)n2C1c1ccc(F)cc1 (centres undefined),inconclusive: 9.38%,
Cn1ccnc1SCC(=O)Nc1cccc([N+](=O)[O-])c1,inconclusive: 1.85%,
CCc1cccc(C)c1N1C(=O)CN(Cc2ccccc2)C1=S,inconclusive: 3.43%,
COc1ccc(-n2nnc3c(SCC(=O)Nc4ccc5c(c4)OCCO5)ncnc32)cc1,inactive,
COc1ccc(C/C(N)=N/OC(=O)CCc2ccccc2)cc1,inconclusive: -0.297%,
Cc1cc(Cl)ccc1OCCCC(=O)NCCN1C(=O)S/C(=C\c2cccnc2)C1=O,,"inconclusive: 23.1 µM [falling, single point]"
Cc1cc(C(=O)N[C@@H](c2ccccc2)[C@]2(C)C[C@H]2[C@@H](C)C(=O)Nc2ccc3ccccc3c2)no1,inactive,
O=c1oc2ccccc2cc1-c1csc(NN=C2CCCC2)n1,inconclusive: -6.29%,
COc1ccc([N+](=O)[O-])cc1NS(=O)(=O)c1ccc(Cl)c(C(=O)Nc2sc3c(c2C#N)CCCCC3)c1,inactive,
Cc1ccc(CC(=O)NCCCc2ccccc2)cc1,,"inconclusive: 11.6 µM [rising, partial curve, poor fit]"
COc1cc(CNC(C)(C)CO)cc(Br)c1OCc1ccc(Cl)cc1,inactive,
c1ccc2c(c1)nc(N1CCCCCC1)c1ccccc12,inactive,
